PubChem BioAssay AID686937, Drosophila RNAi Screening Center, 2013
The screen tested about 23,000 reagents; shown is a random part of those that have a named target and a result. 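Reduced-secretion tags in replicate 1 do not always agree with the z-scores; no criterion for assigning the tags was given.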 Names joined by + are all predicted targets of the reagent. The record does not give: the amount of reagent.

- Aim: 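Knock-downs that reduce output of a secreted reporter enzyme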 (primary screen)
- Cells: Drosophila S2 cells expressing secreted horseradish peroxidase
- Reagents: long dsRNA against Drosophila genes
- Duration: about 5.5 days (5 days dsRNA, then 12 h reporter induction)
- Treatment: reporter expression induced after 5 days of dsRNA, read 12 h later; inducer not stated
- Measured: 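Chemiluminescent measurement of peroxidase in the medium 12 h after reporter induction, following 5 days of dsRNA, given as a z-score per plate; higher means more secretion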
- Direction: z-score: higher = more reporter secreted into medium

Gene,dsRNA,"z-score, replicate 1","z-score, replicate 2","z-score, replicate 3","z-score, replicate 4","phenotype, replicate 1"
CG8929,DRSC07298,-3.29,-4.02,,,reduced secretion
CG8929,DRSC22847,1.48,0.72,,,
CG30088,DRSC21764,-0.22,-0.12,,,
CG33217,DRSC22907,1.14,0.22,,,
Oatp26F (Organic anion transporting polypeptide 26F),DRSC02149,0.31,0.3,,,
Oatp26F (Organic anion transporting polypeptide 26F),DRSC02272,0.46,0.34,,,
Oatp26F (Organic anion transporting polypeptide 26F),DRSC02695,0.31,0.38,,,
CG9395,DRSC03218,0.67,0.45,,,
Dph5 (Diphthamide methyltransferase),DRSC16653,-0.17,0.17,,,
RpL27A (Ribosomal protein L27A),DRSC00781,-5.52,-4.24,,,reduced secretion
Tango8 (Transport and Golgi organization 8),DRSC06474,-3.04,-2.17,1.19,0.87,reduced secretion
Cpr62Ba (Cuticular protein 62Ba),DRSC08403,0.17,0.16,,,
CG13698,DRSC10047,0.33,0.23,,,
Ide (Insulin degrading metalloproteinase),DRSC11867,0.27,0.18,,,
CadN (Cadherin-N),DRSC03286,0.16,0.25,,,
CG11857,DRSC14411,-0.48,-0.13,,,
CG4520,DRSC15590,0.39,0.16,,,
CG13954,DRSC06442,0.13,0.22,,,
CG9921,DRSC20220,-1.26,0.15,,,
CG5681,DRSC02876,-0.33,0.1,,,
CG14668,DRSC12254,0.36,0.08,,,
Traf4 (TNF-receptor-associated factor 4),DRSC00445,0.68,0.58,,,
Traf4 (TNF-receptor-associated factor 4),DRSC00794,0.42,0.33,,,
CG17108,DRSC02576,0.16,0.26,,,
CG17108,DRSC22214,-0.82,-0.36,,,
Sac1 (Sac1 phosphatase),DRSC08622,0.25,0.2,,,
HmgD (High mobility group protein D),DRSC04619,0.41,0.55,,,
lncRNA:CR43613 (long non-coding RNA:CR43613),DRSC13943,0.45,0.18,,,
Hand,DRSC02656,-0.08,0.14,,,
CG17803,DRSC15275,0.5,0.49,0.37,0.1,
CG17803,DRSC22811,0.62,0.63,,,
SkpA (SKP1-related A),DRSC18833,0.25,0.01,,,
Obp99c (Odorant-binding protein 99c),DRSC16262,0.35,0.25,,,
CG14377,DRSC14837,0.42,0.64,,,
CG10300,DRSC14225,0.08,0.22,,,
"GluRS-m (Glutamyl-tRNA synthetase, mitochondrial)",DRSC10431,0.13,0.3,,,
CG32320,DRSC21514,0.75,-0.3,,,
CG32454,DRSC11652,0.26,0.32,,,
Mulk (Multi-substrate lipid kinase),DRSC02658,0.41,0.33,,,
CG13482,DRSC10024,-0.66,-0.72,,,
PH4alphaSG1 (prolyl-4-hydroxylase-alpha SG1),DRSC15080,0.17,0.2,,,
Fpps (Farnesyl pyrophosphate synthase),DRSC07429,0.41,0.37,,,
Atg18a (Autophagy-related 18a),DRSC10943,0.42,0.39,,,
CG31051,DRSC15034,0.33,0.6,,,
MYPT-75D (Myosin phosphatase targeting subunit 75D),DRSC10743,0.34,0.34,,,
ASPP,DRSC04305,-2.1,-0.75,,,reduced secretion
CG8888,DRSC07294,0.46,0.46,,,
CG8888,DRSC07295,0.63,0.73,,,
CG12011,DRSC08219,0.59,0.13,,,
Vps13 (Vacuolar protein sorting 13),DRSC06817,0.18,0.25,,,
CG7920,DRSC16346,0.4,0.42,,,
CG7920,DRSC21594,0.72,-0.05,,,
CG9436,DRSC05005,0.3,0.43,,,
ADD1 (ADD domain-containing protein 1),DRSC07135,0.18,0.27,,,
Nlg2 (Neuroligin 2),DRSC00957,-0.81,-0.01,,,
Nlg2 (Neuroligin 2),DRSC03578,0.46,0.22,,,
mRpL30 (mitochondrial ribosomal protein L30),DRSC18416,-0.71,-1.25,,,
eIF3d1 (eukaryotic translation initiation factor 3 subunit d1),DRSC16938,-0.01,-0.39,,,
mof (males absent on the first),DRSC18795,0.22,0.12,,,
Tsp66E (Tetraspanin 66E),DRSC09683,0.28,0.4,,,
CG30487,DRSC05377,0.27,0.45,,,
CG3104,DRSC00567,0.09,0.08,,,
Ppn (Papilin),DRSC15328,0.3,0.48,,,
CG46385,DRSC06425,-2.34,-1.21,,,reduced secretion
CG46385,DRSC06557,0.31,0.3,,,
beat-IIIa (beaten path IIIa),DRSC01575,0.32,-0.36,,,
beat-IIIa (beaten path IIIa),DRSC01577,-0.12,0.22,,,
beat-IIIa (beaten path IIIa),DRSC02178,0.24,0.37,,,
"ArgRS-m (Arginyl-tRNA synthetase, mitochondrial)",DRSC14186,0.36,0.26,0.17,0.24,
asl (asterless),DRSC12319,0.44,0.43,,,
robls54B (roadblock similar 54B),DRSC05660,0.14,0.4,,,
Ptp36E (Protein tyrosine phosphatase 36E),DRSC03021,0.54,0.54,,,
Nedd8 (Nedd8 ubiquitin like modifier),DRSC02092,-0.67,-1.1,,,
superdeath (Suppressor of ER stress-induced death),DRSC14868,-1.96,-0.99,,,
b6,DRSC18740,0.43,0.29,,,
TfAP-2 (Transcription factor AP-2),DRSC11601,-0.02,-0.08,,,
CG43777 + CG43776 + CG43775,DRSC04206,0.25,0.06,,,
CG33490,DRSC10587,0.29,0.24,,,
Gr77a (Gustatory receptor 77a),DRSC11446,0.7,0.27,,,
Cbl (Cbl proto-oncogene),DRSC10764,0.16,0.29,,,
Cbl (Cbl proto-oncogene),DRSC11111,0,0.25,,,
mib1 (mind bomb 1),DRSC10550,0.58,0.31,,,
Ccs (Copper chaperone for superoxide dismutase),DRSC06692,0.46,0.44,,,
CG6685,DRSC10695,-0.01,0.19,,,
twy (twitchy),DRSC10562,0.18,0.23,,,
amx (almondex),DRSC18736,0.12,-0.25,,,
CG7886,DRSC16333,0.18,0.44,,,
Gyf (Gigyf),DRSC17202,-0.24,-0.22,,,
clt (cricklet),DRSC04621,-0.37,0.27,,,
Cyp312a1 (Cytochrome P450 312a1),DRSC11128,0.11,0.13,,,
CR32745 (pseudo),DRSC17442,-0.2,0.51,,,
ND4 (retired record),DRSC21269,0.57,0.08,,,
wls (wntless),DRSC10605,0.52,0.61,,,
BomS6 (Bomanin Short 6),DRSC21676,-0.12,-0.37,,,
CG14395,DRSC14852,-0.08,0.18,,,
Obp57c + Obp57b,DRSC21914,-0.62,-0.78,,,reduced secretion
fog (folded gastrulation),DRSC20646,0.34,0.44,,,
CG30411,DRSC04004,0.15,,,,
Npc2h (Niemann-Pick type C-2h),DRSC14297,0.16,0.32,,,
CG30105,DRSC05668,-0.07,0.35,,,
CG14879,DRSC15003,0.34,0.52,,,
JIL-1 (JIL-1 kinase),DRSC11200,0.52,0.32,,,
CG10321,DRSC04061,-0.11,0.43,,,
CG6006,DRSC13137,0.54,-0.18,,,
CG6006,DRSC15946,0.51,0.46,,,

Only “z-score, replicate 1” (11 entries from above):
mof (males absent on the first) [DRSC18795]: 0.22
Tsp66E (Tetraspanin 66E) [DRSC09683]: 0.28
CG30487 [DRSC05377]: 0.27
CG3104 [DRSC00567]: 0.09
Ppn (Papilin) [DRSC15328]: 0.3
CG46385 [DRSC06425]: -2.34
CG46385 [DRSC06557]: 0.31
beat-IIIa (beaten path IIIa) [DRSC01575]: 0.32
beat-IIIa (beaten path IIIa) [DRSC01577]: -0.12
beat-IIIa (beaten path IIIa) [DRSC02178]: 0.24
ArgRS-m (Arginyl-tRNA synthetase, mitochondrial) [DRSC14186]: 0.36
